Laboratory results: PubChem BioAssay AID1259405 (NCATS, 2018)
Shown is an unselected part of about 50,000 deposited reagents. In the full data, about 4,000 (8%) were called active. 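Mouse siRNA library applied to hamster cells; one well for each siRNA.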 Unmarked entries are inactive. Reagents against one gene are numbered here.

- Purpose: 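Mouse-designed siRNAs used to find CHO productivity engineering targets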 (primary screen)
- Cells: Chinese hamster CHO-K1 ovary cells with stable secreted eGFP expression
- Knock-down reagent: single siRNA against mouse genes, 0.8 pmol siRNA per well (2 µl of 400 nM stock)
- Duration: 3 days
- Measured: 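Percent of the per-plate non-targeting control median for intracellular GFP per well by laser scanning cytometry and for cell viability by ATP luminescence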
- Scale: GFP, % of control: higher = more GFP per well, higher productivity; viability (ATP), % of control: higher = more viable cells (more ATP)
- Call rule: 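a knock-down is called active if GFP reaches 120% or more of non-targeting control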

Against Ffar2 (free fatty acid receptor 2) #1, the values are GFP, % of control 151 (active); viability (ATP), % of control 88.8.
After knock-down of Ffar2 (free fatty acid receptor 2) #2, the screen gave GFP, % of control 42; viability (ATP), % of control 53.3.
After knock-down of Ffar2 (free fatty acid receptor 2) #3 the results were GFP, % of control 80.2; viability (ATP), % of control 72.1.
For Gucy1a1 (guanylate cyclase 1, soluble, alpha 1) #1 the deposit lists GFP, % of control 57.7; viability (ATP), % of control 76.4.
After knock-down of Gucy1a1 (guanylate cyclase 1, soluble, alpha 1) #2, the record shows GFP, % of control 50.4; viability (ATP), % of control 51.5.
Gucy1a1 (guanylate cyclase 1, soluble, alpha 1) #3 scored GFP, % of control 58.6; viability (ATP), % of control 69.6.
Silencing of Btc (betacellulin, epidermal growth factor family member) #1 resulted in: GFP, % of control 39.7; viability (ATP), % of control 41.3.
Silencing of Btc (betacellulin, epidermal growth factor family member) #2 gave: GFP, % of control 56.1; viability (ATP), % of control 64.4.
Silencing of Btc (betacellulin, epidermal growth factor family member) #3 came out at: GFP, % of control 29.4; viability (ATP), % of control 26.4.
Depletion of Tmt1a2 (thiol methyltransferase 1A2) #1 resulted in: GFP, % of control 51.9; viability (ATP), % of control 46.7.
Depletion of Tmt1a2 (thiol methyltransferase 1A2) #2 gave: GFP, % of control 106; viability (ATP), % of control 96.7.
Silencing of Tmt1a2 (thiol methyltransferase 1A2) #3 gave: GFP, % of control 24.1; viability (ATP), % of control 44.3.
After knock-down of Clmn (calmin) #1 the results were GFP, % of control 54.7; viability (ATP), % of control 71.5.
Clmn (calmin) #2 showed GFP, % of control 73.4; viability (ATP), % of control 65.4.
Against Clmn (calmin) #3, the entry reads GFP, % of control 111; viability (ATP), % of control 111.
With knock-down of Erich2 (glutamate rich 2) #1, the screen gave GFP, % of control 47.8; viability (ATP), % of control 59.3.
After knock-down of Erich2 (glutamate rich 2) #2 the results were GFP, % of control 64.2; viability (ATP), % of control 86.8.
Erich2 (glutamate rich 2) #3 gave GFP, % of control 106; viability (ATP), % of control 112.
Coxfa4 (cytochrome c oxidase associated subunit FA4) #1 gave GFP, % of control 80.4; viability (ATP), % of control 91.5.
With knock-down of Coxfa4 (cytochrome c oxidase associated subunit FA4) #2, the screen gave GFP, % of control 78.5; viability (ATP), % of control 67.4.
Silencing of Coxfa4 (cytochrome c oxidase associated subunit FA4) #3 came out at: GFP, % of control 140 (active); viability (ATP), % of control 86.7.
After knock-down of Rbm18 (RNA binding motif protein 18) #1 the results were GFP, % of control 105; viability (ATP), % of control 69.3.
Rbm18 (RNA binding motif protein 18) #2 scored GFP, % of control 92.4; viability (ATP), % of control 88.1.
After knock-down of Rbm18 (RNA binding motif protein 18) #3, the screen gave GFP, % of control 80.8; viability (ATP), % of control 81.9.

Single entries from the list.
Under “GFP, % of control”, Ffar2 (free fatty acid receptor 2) #2 has 42
Coxfa4 (cytochrome c oxidase associated subunit FA4) #1, GFP, % of control: 80.4
Btc (betacellulin, epidermal growth factor family member) #3, viability (ATP), % of control = 26.4

The results go on:
After knock-down of Flt3 (FMS-like tyrosine kinase 3) the results were GFP, % of control 97.3; viability (ATP), % of control 63.8.
With knock-down of Sun1 (Sad1 and UNC84 domain containing 1) #1, the record shows GFP, % of control 40.3; viability (ATP), % of control 37.3.
Against Sun1 (Sad1 and UNC84 domain containing 1) #2 the deposit lists GFP, % of control 75.1; viability (ATP), % of control 28.6.
Depletion of Sun1 (Sad1 and UNC84 domain containing 1) #3 gave: GFP, % of control 67.3; viability (ATP), % of control 68.9.
Fbl (fibrillarin) #1 gave GFP, % of control 116; viability (ATP), % of control 74.3.
Fbl (fibrillarin) #2 scored GFP, % of control 96.9; viability (ATP), % of control 78.8.
Against Fbl (fibrillarin) #3, the values are GFP, % of control 127 (active); viability (ATP), % of control 95.5.
Depletion of Tspan9 (tetraspanin 9) #1 resulted in: GFP, % of control 87.7; viability (ATP), % of control 45.
For Tspan9 (tetraspanin 9) #2 the deposit lists GFP, % of control 48.1; viability (ATP), % of control 31.9.
For Tspan9 (tetraspanin 9) #3, the values are GFP, % of control 78.8; viability (ATP), % of control 62.8.
Depletion of Pik3r6 (phosphoinositide-3-kinase regulatory subunit 6) #1 resulted in: GFP, % of control 41.1; viability (ATP), % of control 47.7.
Knock-down of Pik3r6 (phosphoinositide-3-kinase regulatory subunit 6) #2 gave: GFP, % of control 57.1; viability (ATP), % of control 75.8.
After knock-down of Pik3r6 (phosphoinositide-3-kinase regulatory subunit 6) #3, the screen gave GFP, % of control 66.1; viability (ATP), % of control 93.6.
Knock-down of Pdxk (pyridoxal (pyridoxine, vitamin B6) kinase) gave: GFP, % of control 94.6; viability (ATP), % of control 64.3.
Zfp696 (zinc finger protein 696) #1 scored GFP, % of control 56.7; viability (ATP), % of control 56.9.
For Zfp696 (zinc finger protein 696) #2 the deposit lists GFP, % of control 75.5; viability (ATP), % of control 82.5.
Depletion of Zfp696 (zinc finger protein 696) #3 came out at: GFP, % of control 83.8; viability (ATP), % of control 100.
